Consider two molecules from CN113637077A.

For the test, the target named is T1, U937细胞表面MICA (human) (UniProt Q29983).
T1 sequence (looked up): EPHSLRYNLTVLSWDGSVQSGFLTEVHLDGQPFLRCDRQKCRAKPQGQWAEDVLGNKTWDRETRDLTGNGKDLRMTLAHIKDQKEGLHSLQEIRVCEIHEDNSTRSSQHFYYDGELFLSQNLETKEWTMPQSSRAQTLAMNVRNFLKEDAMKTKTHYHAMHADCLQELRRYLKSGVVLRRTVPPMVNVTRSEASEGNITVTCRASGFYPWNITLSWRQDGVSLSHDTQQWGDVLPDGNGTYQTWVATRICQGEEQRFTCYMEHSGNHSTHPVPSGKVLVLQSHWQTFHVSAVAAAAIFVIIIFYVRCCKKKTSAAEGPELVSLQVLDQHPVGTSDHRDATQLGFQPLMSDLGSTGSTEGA
Description: flow cytometry on U937 cells, PE anti-human IgG Fc detection. (In general: Flow cytometry measures light scatter and fluorescence of single cells or particles in a stream.)

Results are given in words; binding and its absence hold for the method and conditions named. Some results given as binding are weak or reduced against the parent protein; the word gives no strength.

B1: IPH4301 (antibody, V domains shown)
VH: QVQLQESGPGLVKPSETLSLTCTVSGYSITSDYAWNWIRQPPGKGLEWIGFVSYSGTTKYNPSLKSSRVTISRDTSKNQFSLKLSSVTAADTAVYYCARGYGFDYWGQGTTVTVSS
VL: EIVLTQSPATLSLSPGERATLSCSATSSISSIYFHWYQQKPGQAPRLLIYRTSNLASGIPARFSGSGSGTDYTLTISSLEPEDFAVYYCQQGTTIPFTFGQGTKLEIK
As to B1, the binding entry is listed as “binds”.

B2: 3E5抗体 (Fc fusion, not shown: a dimerising Fc or GST)
chain: QVKLEESGGGLVQAGGSLRLSCAASGFSFDDYAIGWFRQALGKEREEREGVACISSSDRSTYYADPVKGRFAISSDNAKSTVYLQMTSLKPEDTAVYYCARLSRCSGYGPYTLWNWGQGTQVTVSS
B2: the binding entry is “binds”.
